Literature values as cited in patent US10913710B2, “Benzene disulfonamide for the treatment of cancer” (priority 2017, dated 2021).
For at least one compound, name, drawing or mass did not settle the structure.

Conditions: cited from earlier work

For Cc1ccc(-n2nc3c(=O)n(CCCC(=O)NCC(C)c4ccccc4)nc(C)c3c2C)cc1 (stereo not shown) [Deltazinone 1, reference compound], the cellular activity is given as “only at micromolar concentrations”.
